Measurements published in publication PMC8224239.
These are yes or no findings as the source states them, for the method shown. Binding seen in cells or lysates may run through a third protein. Some entries that bind do so weakly or less than the wild type. For part of these data: Tags and fused reporters may be left off the sequences shown.

By UniProt entry, the sequences of proteins in these tests, tags left out.
UniProt O14980: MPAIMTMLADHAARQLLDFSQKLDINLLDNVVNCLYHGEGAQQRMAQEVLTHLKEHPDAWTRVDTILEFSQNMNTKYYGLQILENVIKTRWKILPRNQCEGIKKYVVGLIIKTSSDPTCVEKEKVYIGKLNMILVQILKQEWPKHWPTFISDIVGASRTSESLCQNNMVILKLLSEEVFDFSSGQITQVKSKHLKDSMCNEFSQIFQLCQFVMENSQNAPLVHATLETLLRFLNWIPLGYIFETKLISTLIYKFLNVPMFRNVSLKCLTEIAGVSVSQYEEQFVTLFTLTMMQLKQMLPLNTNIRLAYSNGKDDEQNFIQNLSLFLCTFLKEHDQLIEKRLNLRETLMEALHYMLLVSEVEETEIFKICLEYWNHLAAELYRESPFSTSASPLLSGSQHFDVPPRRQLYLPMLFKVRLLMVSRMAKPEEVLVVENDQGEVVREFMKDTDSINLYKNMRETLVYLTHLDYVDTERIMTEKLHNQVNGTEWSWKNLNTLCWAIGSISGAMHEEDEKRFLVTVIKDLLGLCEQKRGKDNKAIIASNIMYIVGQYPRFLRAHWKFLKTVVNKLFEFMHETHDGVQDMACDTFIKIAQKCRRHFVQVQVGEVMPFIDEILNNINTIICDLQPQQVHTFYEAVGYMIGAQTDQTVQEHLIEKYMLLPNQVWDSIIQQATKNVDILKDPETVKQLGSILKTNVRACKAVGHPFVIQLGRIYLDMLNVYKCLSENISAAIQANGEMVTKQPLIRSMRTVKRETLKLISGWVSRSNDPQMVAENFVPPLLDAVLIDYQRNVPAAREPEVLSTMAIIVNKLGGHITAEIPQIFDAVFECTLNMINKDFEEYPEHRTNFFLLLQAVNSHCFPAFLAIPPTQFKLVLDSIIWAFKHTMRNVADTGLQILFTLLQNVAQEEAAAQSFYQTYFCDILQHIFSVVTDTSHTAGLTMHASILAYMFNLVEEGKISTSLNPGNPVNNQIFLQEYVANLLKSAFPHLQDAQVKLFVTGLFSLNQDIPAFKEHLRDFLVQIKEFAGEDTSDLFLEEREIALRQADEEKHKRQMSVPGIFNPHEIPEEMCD
UniProt Q9Y265: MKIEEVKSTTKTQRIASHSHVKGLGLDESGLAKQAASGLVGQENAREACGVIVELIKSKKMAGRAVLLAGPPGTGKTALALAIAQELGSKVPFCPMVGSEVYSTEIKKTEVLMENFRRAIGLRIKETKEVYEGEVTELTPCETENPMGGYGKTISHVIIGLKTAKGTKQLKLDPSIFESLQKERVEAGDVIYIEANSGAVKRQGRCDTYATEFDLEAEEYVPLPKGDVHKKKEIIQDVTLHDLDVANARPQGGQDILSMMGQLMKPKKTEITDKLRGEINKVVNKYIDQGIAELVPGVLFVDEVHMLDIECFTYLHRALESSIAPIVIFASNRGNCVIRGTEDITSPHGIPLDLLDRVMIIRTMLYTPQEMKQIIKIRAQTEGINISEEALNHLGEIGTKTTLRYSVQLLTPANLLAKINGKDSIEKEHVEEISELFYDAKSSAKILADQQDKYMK

How the values were obtained:
[1] = biological target: ecdysoneless (ECD) protein, endogenous (human (endogenous in HEK-293T and MCF10A)) (UniProt O95905); test: co-IP; endogenous proteins; HEK-293T or MCF10A lysates in Triton lysis buffer (20 mM Tris-HCl pH 7.5, 200 mM NaCl, 1% Triton X-100); 1 mg lysate protein with 5 ug antibody overnight at 4°C, protein A/G-agarose; Western blotting
[2] = biological target: T1, GST fusion of ECD-P617G (human) (UniProt O95905); test: pull-down; 20 ug GST fusion protein of ECD or its mutants on glutathione-Sepharose incubated with 1 mg protein lysate of HEK-293T cells transfected with FLAG-DDX39A and/or FLAG-RUVBL1; Western blotting; only the target purified
T1 sequence: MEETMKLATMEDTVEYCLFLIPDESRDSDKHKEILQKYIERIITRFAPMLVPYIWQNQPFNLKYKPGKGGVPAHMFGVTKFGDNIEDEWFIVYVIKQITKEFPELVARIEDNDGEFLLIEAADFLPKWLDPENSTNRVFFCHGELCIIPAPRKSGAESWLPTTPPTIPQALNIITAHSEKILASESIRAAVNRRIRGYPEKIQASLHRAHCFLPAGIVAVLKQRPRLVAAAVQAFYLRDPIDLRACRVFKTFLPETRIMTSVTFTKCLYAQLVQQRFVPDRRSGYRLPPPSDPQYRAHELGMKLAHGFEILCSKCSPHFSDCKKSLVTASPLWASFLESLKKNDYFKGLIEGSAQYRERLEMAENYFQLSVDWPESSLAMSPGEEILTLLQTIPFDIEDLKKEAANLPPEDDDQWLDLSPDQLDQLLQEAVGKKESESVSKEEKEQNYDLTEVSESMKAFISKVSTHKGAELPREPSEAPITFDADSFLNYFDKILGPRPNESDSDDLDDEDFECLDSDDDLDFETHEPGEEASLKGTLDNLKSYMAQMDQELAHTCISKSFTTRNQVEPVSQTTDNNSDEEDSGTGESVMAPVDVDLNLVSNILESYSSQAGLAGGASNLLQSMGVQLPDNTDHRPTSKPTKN

[3] = biological target: GST fusion with full-length ECD (1 to 644 aa) (human) (UniProt O95905); test: as above

binding [1]	binding [2]	binding [3]	Substance
binds			CRM1, endogenous (from UniProt O14980 1-1071)
	binds	binds	FLAG-tagged RUVBL1 (from UniProt Q9Y265 1-456)
